Data reported in doi:10.1101/2020.10.08.331173.
These are yes or no findings as the source states them, for the method shown. Binding seen in cells or lysates may run through a third protein. Some results given as binding are weak or reduced against the parent protein; the word gives no strength. Each block holds one substance with its values, some of them ahead of it.

What was measured:
Experiment in all cases: co-IP
[1] = target: TDP-43-GFP (UniProt Q13148)
[2] = target: TDP-43, endogenous in SN56 cells (mouse (endogenous in SN56)) (UniProt Q921F2)
[3] = target: HA-Sti1 (stress inducible phosphoprotein 1) (UniProt Q60864)

- binding [1]: binds
Substance: Sti1 tagged with an HA epitope (mouse Sti1) (from UniProt Q60864 1-543)

- binding [2]: binds
Substance: Sti1, endogenous in SN56 cells (from UniProt Q60864 1-543)

- binding [3]: binds
Substance: TDP-43 (transactive response element DNA/RNA binding protein of 43 kDa) (from UniProt Q13148 1-414)
